Results are given in words; binding and its absence hold for the method and conditions named. Binding seen in cells or lysates may run through a third protein. Here binding means that the protein was enriched with, or labelled near, the bait; the list need not be complete.

Protein sequences, listed by entry. Tags and fused reporters are not part of them.
UniProt Q12341: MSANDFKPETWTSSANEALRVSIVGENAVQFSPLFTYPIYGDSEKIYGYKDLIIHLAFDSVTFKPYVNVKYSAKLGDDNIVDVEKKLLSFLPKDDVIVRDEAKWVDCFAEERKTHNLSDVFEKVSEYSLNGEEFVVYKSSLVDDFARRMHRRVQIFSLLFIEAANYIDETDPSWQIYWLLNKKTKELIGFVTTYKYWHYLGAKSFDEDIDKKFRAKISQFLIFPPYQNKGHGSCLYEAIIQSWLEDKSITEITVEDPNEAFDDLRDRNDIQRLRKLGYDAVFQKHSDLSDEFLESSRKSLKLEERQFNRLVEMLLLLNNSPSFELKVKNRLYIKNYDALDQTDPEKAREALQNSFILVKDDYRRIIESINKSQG

In the experiment the target is TAP-tagged Hat1p (S. cerevisiae) (UniProt Q12341). The experiment in a line: affinity purification with mass spectrometry; TAP-tagged bait purified from soluble extracts of large-scale log-phase yeast cultures; purified preparations analysed by gel-free tandem mass spectrometry and by gel electrophoresis with MALDI-TOF; silver-stained gel.

B1: Hat2p (protein, UniProt P39984 1-401)
chain: MENQEKPLSVDEEYDLWKSNVPLMYDFVSETRLTWPSLTVQWLPTPVQELDGGFIKQELIIGTHTSGEEENYLKFAEINLPKEILSNEDPQEEAGEEYQSSLPAPRSNIRITAKYEHEEEITRARYMPQDPNIVATINGQGTVFLYSRSEGLQSTLKFHKDNGYALSFSTLVKGRLLSGSDDHTVALWEVGSGGDPTKPVRTWNDLHSDIINDNKWHNFNKDLFGTVSEDSLLKINDVRANNTTIDTVKCPQPFNTLAFSHHSSNLLAAAGMDSYVYLYDLRNMKEPLHHMSGHEDAVNNLEFSTHVDGVVVSSGSDNRLMMWDLKQIGAEQTPDDAEDGVPELIMVHAGHRSSVNDFDLNPQIPWLVASAEEENILQVWKCSHSLPIVGGPPKVNKDIIS
On to B1, for which the binding result was “binds”.

(Values after article PMC2140264.)
